No constants are given. Whether binding was seen depends on the method and setting. Binding seen in cells or lysates may run through a third protein. Some entries that bind do so weakly or less than the wild type.

Chains of the proteins cited; added tags and fusions are not shown.
UniProt P41145: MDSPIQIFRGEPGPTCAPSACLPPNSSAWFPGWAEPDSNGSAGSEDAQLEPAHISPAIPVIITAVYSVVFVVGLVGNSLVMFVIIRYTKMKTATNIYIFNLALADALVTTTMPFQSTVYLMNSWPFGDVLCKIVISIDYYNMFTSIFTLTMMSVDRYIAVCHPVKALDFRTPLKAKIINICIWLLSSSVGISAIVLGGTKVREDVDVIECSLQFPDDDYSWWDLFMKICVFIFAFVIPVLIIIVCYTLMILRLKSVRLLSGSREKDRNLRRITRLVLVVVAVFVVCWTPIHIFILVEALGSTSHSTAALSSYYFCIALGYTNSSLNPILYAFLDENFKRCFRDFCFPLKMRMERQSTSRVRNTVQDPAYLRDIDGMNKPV
UniProt P32121: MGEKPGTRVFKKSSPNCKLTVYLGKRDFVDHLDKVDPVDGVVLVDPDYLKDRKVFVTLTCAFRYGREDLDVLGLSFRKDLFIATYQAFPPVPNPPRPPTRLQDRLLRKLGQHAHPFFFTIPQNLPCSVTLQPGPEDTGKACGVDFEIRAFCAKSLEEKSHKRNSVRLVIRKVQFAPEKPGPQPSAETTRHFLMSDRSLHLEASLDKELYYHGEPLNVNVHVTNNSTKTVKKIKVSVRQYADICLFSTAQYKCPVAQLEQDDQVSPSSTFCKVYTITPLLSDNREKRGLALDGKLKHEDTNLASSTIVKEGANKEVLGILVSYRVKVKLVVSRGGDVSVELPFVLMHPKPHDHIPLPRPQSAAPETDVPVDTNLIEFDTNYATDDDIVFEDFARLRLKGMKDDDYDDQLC

The target in the experiment is human KOR fused with Renilla luciferase at the C-terminus (KOR-RLuc8) (human) (UniProt P41145). Put plainly: FRET or BRET; BRET1 arrestin recruitment in HEK293T cells co-transfected 1:5 with KOR-RLuc8 and mVenus-β-arrestin 1 or 2; coelenterazine h; agonist (U50,488, nalfurafine, WMS-X600) added for 5 min at room temperature. In general terms: BRET reads energy transfer from a luciferase to a nearby fluorophore.

For “β-arrestin 2 fused with mVenus at the N-terminus (mVenus-βarrestin 2) (from UniProt P32121 1-409)”, the binding result is on record as “binds”.

(Values after publication PMC10008561.)
